Test results taken from patent EP4775675A1.
Positions count from the first letter of the chain named. No constants are given. Whether binding was seen depends on the method and setting. Some results given as binding are weak or reduced against the parent protein; the word gives no strength.

The chains behind the UniProt entries cited, without tags or fusion partners.
UniProt Q8WTT0: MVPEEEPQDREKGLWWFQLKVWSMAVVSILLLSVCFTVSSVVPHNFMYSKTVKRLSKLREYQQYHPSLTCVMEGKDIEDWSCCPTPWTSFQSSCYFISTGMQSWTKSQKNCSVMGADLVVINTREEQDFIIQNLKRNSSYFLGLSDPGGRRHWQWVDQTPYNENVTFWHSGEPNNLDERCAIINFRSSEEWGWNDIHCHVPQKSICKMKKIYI

Assays:
[1] = target: cynomolgus monkey BDCA-2 on cells (Jurkat-cynoBDCA-2 cells; cynomolgus monkey pDCs) (cynomolgus monkey); experiment: flow cytometry on Jurkat-cynoBDCA-2 cells
[2] = target: human BDCA-2 on cells (Jurkat-hBDCA-2 cells; human pDCs; human PBMCs) (human) (UniProt Q8WTT0); experiment: flow cytometry on Jurkat-hBDCA-2 cells

B1: 164C11B8 (murine hybridoma monoclonal antibody) (antibody, V domains shown)
VH: DVILVESGGGLVKPGGSLKLSCAASGITFSTYTMSWLRQTPEKRLEWVATINSGGDNTYYPDSVKGRFTISRDNAKNNLYLQMSSLKSEDTALYYCATYRPYYYGSVLDYWGQGTTLTVSS
VL: DIVLTQSPASLAVSLGQRATISCKASQSVDYDGNSYVNWYQQKPGQPPKLLIYGASNLESGIPDRFSGSGSGTDFTLNIHPVEEEDGATYYCQQSDEDPWTFGGGTKLEIR
With B1 the binding [1] was “binds”.

B2: 17G6A2_hzH1L8_hIgG1 (antibody, V domains shown)
VH: EVQLVESGGGLVKPGGSLRLSCAASGFTFSSYGMSWVRQAPGKGLEWVSTISSGDSYTYYPDSVKGRFTISRDNAKNSLYLQMNSLRAEDTAVYYCARQLYYSYGYYFDYWGQGTTVTVSS
VL: DIVLTQSPASLAVSPGQRATITCRASESVSFHGTHLMHWYQQKPGQPPKLLIYAASNLESGVPARFSGSGSETDFTLTINPVEANDAANYYCQQSIEDPPTFGGGTKVEIKR
For B2, the binding [2] was “binds” and the binding [1] was “binds”.

B3: 17G6A2_hzH2L5_hIgG1 (antibody, V domains shown)
VH: B2 VH with S49A
VL: B2 VL with E72G, N85E, A87T
With B3 the binding [2] was “binds” and the binding [1] was “binds”.

B4: 17G6A2_hzH2L6_hIgG1 (antibody, V domains shown)
VH: B2 VH with S49A
VL: B2 VL with E72G
In the case of B4, the binding [2] is reported as “binds” and the binding [1] is reported as “binds”.

B5: 17G6A2_hzH2L7_hIgG1 (antibody, V domains shown)
VH: B2 VH with S49A
VL: B2 VL with N85E, A87T
With B5 the binding [2] was “binds” and the binding [1] was “binds”.

B6: 17G6A2_hzH2L8_hIgG1 (antibody, V domains shown)
VH: B2 VH with S49A
VL: B2 VL
B6 was tested, and the binding [2] was “binds” and the binding [1] was “binds”.

B7: 17G6A2_hzH3L5_hIgG1 (antibody, V domains shown)
VH: B2 VH with G44R, S49A
VL: B2 VL with E72G, N85E, A87T
For B7, the binding [2] was “binds” and the binding [1] was “binds”.

B8: 17G6A2_hzH3L6_hIgG1 (antibody, V domains shown)
VH: B2 VH with G44R, S49A
VL: B2 VL with E72G
In the case of B8, the binding [2] is reported as “binds” and the binding [1] is reported as “binds”.

B9: 17G6A2_hzH3L7_hIgG1 (antibody, V domains shown)
VH: B2 VH with G44R, S49A
VL: B2 VL with N85E, A87T
B9 was tested, and the binding [2] was “binds” and the binding [1] was “binds”.

B10: 17G6A2_hzH3L8_hIgG1 (antibody, V domains shown)
VH: B2 VH with G44R, S49A
VL: B2 VL
B10 was tested, and the binding [2] was “binds” and the binding [1] was “binds”.

B11: 164C11B8_hzH1L1_hIgG1 (antibody, V domains shown)
VH: EVQLLESGGGLVQPGGSLRLSCAASGFTFSTYTMSWVRQAPGKGLEWVSTINSGGDNTYYPDSVKGRFTISRDNSKNTLYLQMNSLRAEDTAVYYCATYRPYYYGSVLDYWGQGTTVTVSS
VL: DIVMTQSPDSLAVSLGERATINCKASQSVDYDGNSYVNWYQQKPGQPPKLLIYGASNLESGVPDRFSGSGSGTDFTLTISSLQAEDVAVYYCQQSDEDPWTFGGGTKVEIKR
With B11 the binding [2] was “binds” and the binding [1] was “binds”.

B12: 164C11B8_hzH2L1_hIgG1 (antibody, V domains shown)
VH: B11 VH with S49A
VL: B11 VL
With B12 the binding [2] was “binds” and the binding [1] was “binds”.

B13: 164C11B8_hzH3L1_hIgG1 (antibody, V domains shown)
VH: B11 VH with F27I, S49A
VL: B11 VL
In the case of B13, the binding [2] is reported as “binds” and the binding [1] is reported as “binds”.

B14: 164C11B8_hzH4L1_hIgG1 (antibody, V domains shown)
VH: B11 VH with F27I, G44R, S49A
VL: B11 VL
With B14 the binding [2] was “binds” and the binding [1] was “binds”.

B15: 17G6A2 (murine hybridoma monoclonal antibody) (antibody, V domains shown)
VH: EVQLVESGGDLVKPGGSLKLSCAASGFTFSSYGMSWVRQTPDKRLEWVATISSGDSYTYYPDSVKGRFTISRDNAKNTLYLQMSSLKSEDTAMYYCARQLYYSYGYYFDYWGQGTTLTVSS
VL: DIVLTQSPASLAVSLGQRATISCRASESVSFHGTHLMHWYQQKPGQPPKLLIYAASNLESGVPARFSGSGSETDFTLNIHPVEEEDAATYFCQQSIEDPPTFGGGTKLEIK
For B15, the binding [1] was “binds”.
